{"source": "patent US11352405B2", "about": "“GLP-1/glucagon receptor agonists in the treatment of fatty liver disease and steatohepatitis” (SANOFI, priority 2017, dated 2022)", "key": {"[1]": {"tested_on": "obese patients with biopsy proven NASH", "conditions": "9% under placebo; cited from earlier work"}, "[2]": {"tested_on": "mice with AMLN-diet-induced NASH", "assay": "murine diet-induced NASH model (AMLN diet), eight-week treatment", "type": "in vivo, C57BL/6J mice", "source_text": "Test compounds were investigated in a mouse model of NASH (murine diet-induced NASH model) as described in Kristiansen et al (World Journal of Hepatology 2016, vol. 8, pp. 673-684). C57BL/6J mice were given ad libitum access to a diet (D09100301, Research Diet, United States) high in fat (40%, of these 18% trans-fat), carbohydrates (40%, of these 20% fructose) and cholesterol (2%) that has previously been described as AMLN diet ([…] et al., Am J Physiol Gastrointest Liver Physiol 2013, vol. 305, pp. G483-G495). A control group was kept on regular rodent chow (Altromin 1324, Brogaarden, Denmark). After 26 weeks on the diet, a liver biopsy was performed for histological assessment of NASH and fibrosis at baseline. For this purpose, about 100 mg liver tissue were collected from the left lateral lobe, fixed overnight in 4% paraformaldehyde, paraffin-embedded and sectioned (3 μm thickness). For histological assessment, sections were stained with hematoxylin, eosin or Sirius Red and followed by analysis with Visiomorph software (Visiopharm, Denmark). Histological scoring was performed by a pathologist blinded to the study. NAFLD activity score and fibrosis score were determined according to the clinical criteria outlined by Kleiner et al (Hepatology 2005, […], pp. 1313-1321). Animals were randomized into different treatment groups according to body weight and extent of fibrosis. Treatment period was eight weeks during which animals remained on the AMLN diet. Compounds were given by once-daily or twice-daily subcutaneous injection. Vehicle-treated animals on AMLN diet and non-treated animals on regular rodent chow were included as controls. Group sizes were between 8 and 14 animals. After treatment, terminal liver samples were collected and analysed as for the pre-biopsy. Dual-agonistic GLP1R/GCGR agonistic peptides were investigated in a murine model of NASH as described in the methods section. Treatment duration was eight weeks over which animals remained on the NASH-inducing AMLN diet. The GLP1R-specific agonist liraglutide (SEQ ID NO.: 4) was included as a reference compound. In the diet-induced murine NASH model, compounds were administered at the following doses (all via subcutaneous injections): SEQ ID NO.: 2 10 μg/kg b.i.d., SEQ ID NO.:3 30 μg/kg q.d. in comparison to liraglutide (SEQ ID NO.: 4) at 200 μg/kg q.d., SEQ ID NO.: 1 10 μg/kg b.i.d. or 30 μg/kg b.i.d. in comparison to liraglutide (SEQ ID NO.: 4) at 100 μg/kg b.i.d."}, "[3]": {"conditions": "100 μg/kg twice daily s.c., eight weeks, AMLN diet mice (FIG. 3A study)"}, "[4]": {"conditions": "200 μg/kg q.d. s.c., eight weeks, AMLN diet mice (FIG. 2A study)"}}, "note": "At least one structure is not confirmed: it was looked up by name or label, or the drawing left a doubt."}
{"smiles": "CCCCCCCCCCCCCCCC(=O)N[C@@H](CCC(=O)NCCCC[C@H](NC(=O)[C@H](C)NC(=O)[C@H](C)NC(=O)[C@H](CCC(N)=O)NC(=O)CNC(=O)[C@H](CCC(=O)O)NC(=O)[C@H](CC(C)C)NC(=O)[C@H](Cc1ccc(O)cc1)NC(=O)[C@H](CO)NC(=O)[C@H](CO)NC(=O)[C@@H](NC(=O)[C@H](CC(=O)O)NC(=O)[C@H](CO)NC(=O)[C@@H](NC(=O)[C@H](Cc1ccccc1)NC(=O)[C@@H](NC(=O)CNC(=O)[C@H](CCC(=O)O)NC(=O)[C@H](C)NC(=O)[C@@H](N)Cc1cnc[nH]1)[C@@H](C)O)[C@@H](C)O)C(C)C)C(=O)N[C@@H](CCC(=O)O)C(=O)N[C@@H](Cc1ccccc1)C(=O)N[C@H](C(=O)N[C@@H](C)C(=O)N[C@@H](Cc1c[nH]c2ccccc12)C(=O)N[C@@H](CC(C)C)C(=O)N[C@H](C(=O)N[C@@H](CCCNC(=N)N)C(=O)NCC(=O)N[C@@H](CCCNC(=N)N)C(=O)NCC(=O)O)C(C)C)[C@@H](C)CC)C(=O)O", "note": "[liraglutide, HAEGTFTSDVSSYLEGQAAK((S)-4-Carboxy-4-hexadecanoyl-amino-butyryl-)-E-F-I-A-W-L-V-R-G-R-G-OH, reference compound]", "values": [{"measurement": "resolution of NASH, % of the patients", "setting": "[1]", "value": 39, "unit": "%"}, {"measurement": "trend to an improvement in fibrosis noted", "setting": "[2]; 100 μg/kg b.i.d. s.c., eight weeks (FIG. 3E)", "value": "not"}, {"measurement": "decrease in mean NAS vs baseline", "setting": "[2]; 100 μg/kg b.i.d. s.c., eight weeks, vehicle increased by 0.2 points", "value": 1.1, "unit": "points"}, {"measurement": "weight loss vs baseline", "setting": "[2]; [3]", "value": 2.4, "unit": "grams"}, {"measurement": "weight loss vs baseline (% of body weight)", "setting": "[2]; [3]", "value": 6.4, "unit": "%"}, {"measurement": "weight loss vs baseline", "setting": "[2]; [4]", "value": 3.2, "unit": "gram"}, {"measurement": "weight loss, % of body weight at baseline", "setting": "[2]; [4]", "value": 8.7, "unit": "%"}, {"measurement": "increase in mean fibrosis score vs baseline", "setting": "[2]; 200 μg/kg q.d. s.c., eight weeks, vehicle increased by 0.1 points", "value": 0.2, "unit": "points"}, {"measurement": "decrease in NAS vs baseline", "setting": "[2]; 200 μg/kg q.d. s.c., eight weeks, vehicle increased by 0.8 points", "value": 0.3, "unit": "points"}]}
